In PubChem BioAssay AID743397 (Broad Institute, 2014):
The campaign covered roughly 340,000 compounds. About 330 (0.097%) were called active. Inconclusive means that the source gave no clear call. Such entries were picked first, then a sample of the others.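 The calls were made as follows: active = mean replicate inhibition of at least 30% and at least 1% of replicates passing that level; inconclusive = only one of the two criteria is met; inactive = neither criterion is met.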

Test system: Voltage-dependent L-type calcium channel subunit alpha-1D (CaV1.3) ICDI/IQ interaction
Test: Disruptors of the CACNA1D IQ motif to Ca2+-dependent inactivation inhibitor domain association, primary screening, Förster resonance energy transfer in intact living cells, one concentration (AID 743397);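 also: 0% = median of the neutral control wells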
Settings: HEK cells, CFP/YFP FRET ICDI-IQ, plate reader, 10 min; at 12.3 µM; active compounds read high; percent FRET-ratio fall versus neutral wells

| SMILES | inhibition |
| --- | --- |
| Cc1c(Cl)cccc1NC(=S)NC1CCCC1 | inconclusive: 31.3% |
| COc1ccc(CNc2cc(NCCCO)c([N+](=O)[O-])c3nonc23)cc1 | inconclusive: 32.6% |
| COc1cc(/C=C/C(=O)OCC(=O)N2CC(=O)Nc3ccccc32)ccc1O | inactive: -2.57% |
| CCCCNC(=O)OCC(CC)NC(=O)OC(C)C (stereo not drawn) | inactive: -1.39% |
| CC(=O)NC(c1cc(Cl)c2ccccc2c1O)C(C)C (stereo not drawn) | inactive: -6.23% |
| Cc1cnc(NC(=O)Cn2cnc3c2c(=O)n(C)c(=O)n3C)s1 | inconclusive: 48.9% |
| Cc1ccccc1C(=O)NCCOc1ccccc1Cl | inactive: -4.09% |
| CCN1C(=O)C(CC(=O)Nc2c(C)cccc2C)Nc2cc(S(=O)(=O)N(C)C)ccc21 (stereo not drawn) | inconclusive: 102% |
| COc1ccc(CN2C(=O)CSC2c2ccncc2)cc1 (stereo not drawn) | inconclusive: 41.1% |
| C[C@]12C[C@H](O)[C@@H]3c4ccc(O)cc4CCC3[C@@H]1CCC2=O (stereo partly drawn) | inconclusive: 76.9% |
| N#CC1(c2ccccc2)CCCN1C(=O)c1ccc(Br)o1 (stereo not drawn) | inactive: -6.89% |
| Cc1c(C(=O)NCc2cccc(C(F)(F)F)c2)sc(=O)n1Cc1ccc(C(=O)N(C)C)cc1 | active: 47.1% |
| O=C(Nc1cc([N+](=O)[O-])ccc1O)c1ccc2c(c1)C(=O)N(Cc1ccco1)C2=O | inactive: -4.93% |
| CCC(=O)NCCCNc1nc2c(C)cccc2cc1C#N | active: 45.6% |
| Cc1ccc(S(=O)(=O)N2C3C=CC(C3)C2C(=O)O)cc1 (stereo not drawn) | inconclusive: 30.5% |
| Cc1ccc(Cn2c(SCCN3CCCCC3)nc3c2c(=O)[nH]c(=O)n3C)cc1 | inconclusive: 35.8% |
| O=C1CCCC/C=C\C[C@H](CC(=O)N(CCO)Cc2ccccc2)C(=O)N[C@@H](Cc2ccccc2)CO1 | inconclusive: 30.7% |
| CCOC(=O)N1CCC(NC(=O)c2ccc3c(c2)N=C(CC)c2cc(C)ccc2S3)CC1 | inactive: -5.85% |
| CCOC(=O)C1CCN(C(=O)CN(c2ccc(OC)cc2)S(=O)(=O)c2c(C)noc2C)CC1 | inconclusive: 31.6% |
| Cn1c(C(=O)N(Cc2ccccc2)Cc2cccs2)cc2sccc21 | inactive: -9.58% |
| CCC(C)NC(=S)N1CCN(Cc2ccc3c(c2)OCO3)CC1 (stereo not drawn) | active: 133% |
| Cc1ccc2c(c1)N(C(=O)CCC(=O)NCCCN1CCN(C)CC1)CC(C)O2 (stereo not drawn) | inconclusive: 31% |
| CN(Cc1ccc(Cl)cc1Cl)C(=O)CNC(=O)c1ccco1 | inactive: -1.94% |
| CC(=O)N(C1=C(N2CCOCC2)C(=O)c2ccccc2C1=O)c1ccc(C(=O)O)cc1 | inactive: -6.39% |
| COC(=O)Cc1[nH]n(-c2nc3ccccc3s2)c(=O)c1C(C)=O | inactive: -5.17% |

Some of the entries so far, with bars between the fields.
SMILES | inhibition
CC(=O)N(C1=C(N2CCOCC2)C(=O)c2ccccc2C1=O)c1ccc(C(=O)O)cc1 | inactive: -6.39%
COC(=O)Cc1[nH]n(-c2nc3ccccc3s2)c(=O)c1C(C)=O | inactive: -5.17%

(cont.)

| SMILES | inhibition |
| --- | --- |
| CC(C)(C)NC(=O)C(c1ccc(Cl)cc1)N(CCO)C(=O)c1snc(C(N)=O)c1N (stereo not drawn) | inconclusive: 31.9% |
| CCn1c2ccccc2c2cc(NC(=O)c3ccc(=O)oc3)ccc21 | inconclusive: 38% |
| CCCNc1nc(C)cc(-c2cc(C(=O)Nc3ccccc3)on2)n1 | inconclusive: 32.9% |
| CN(C)CC1CCC/C(=C\c2ccc(OC(=O)c3ccc(Cl)cc3)cc2)C1=O (stereo not drawn) | inactive: -5.46% |
| O=c1[nH]c2c(=O)[nH]cnc2nc1-c1ccccc1 | inconclusive: 32.7% |
| COc1ccc(CCNC(=O)Nc2ccc3nc([C@@H]4O[C@H](CO)[C@@H](O)[C@H](O)[C@H]4O)[nH]c3c2)cc1Br | inconclusive: 30.6% |
| CC1CCCN(Cc2c(O)ccc3c4c(c(=O)oc23)CCCC4)C1 (stereo not drawn) | inactive: -3.03% |
| O=C(NCc1ccco1)C(=O)NCc1ccccc1Cl | inactive: -3.03% |
| Cc1c(C(=O)NCc2ccccc2C(F)(F)F)sc(=O)n1Cc1ccccc1C#N | inconclusive: 35.5% |
| C#CCN1C(=O)S/C(=C\c2ccc(-c3ccc(C(=O)O)cc3C)o2)C1=O | inconclusive: 67.4% |
| CCC(NC(=O)C1CCC1)c1ccccc1 (stereo not drawn) | inconclusive: 38.2% |
| NCCCC[C@@H]1NC(=O)c2cc([N+](=O)[O-])cc(F)c2NCCCC[C@@H](C(N)=O)NC(=O)CNC1=O | inconclusive: 34% |
| COCCNC(=O)c1sc(=O)n(Cc2ccc(SC)cc2)c1C | inconclusive: 37.4% |
| Cc1cccc(CNc2ncnc3ccc(-c4ccoc4)cc23)c1 | inconclusive: 45.7% |
| O=C(C1CCN(S(=O)(=O)c2cnc[nH]2)CC1)N(CCc1ccccc1)Cc1ccccc1 | inconclusive: 179% |
| CCCNC(=O)C(Cc1ccccc1)NS(=O)(=O)c1ccc2c(c1)CCC(=O)N2 (stereo not drawn) | inconclusive: 50.3% |
| O=C(c1ccc(S(=O)(=O)NCc2ccco2)cc1)N1CCN(Cc2ccc3c(c2)OCO3)CC1 | inactive: -2.89% |
| Cc1ccccc1CNC(=O)CCC(=O)N1CCOc2ccc(Cl)cc21 | inconclusive: 43.9% |
| COCCNC(=O)CS(=O)Cc1nc(-c2ccccc2C)oc1C (stereo not drawn) | inconclusive: 38.6% |
| CCN(CC)c1ccc(/C=C(/C#N)C(=O)NCc2ccccc2)o1 | inconclusive: 35% |
| Cc1ccccc1OCC(=O)Nc1ccc2[nH]ncc2c1 | inconclusive: 30.8% |
| COc1cc2c(cc1[N+](=O)[O-])-c1ccccc1C2 | inactive: -2.78% |
| CC1CN(c2nnc(-c3ccccc3)c3ccccc23)CC(C)O1 (stereo not drawn) | inconclusive: 30% |
| Cn1nc(-c2ccc(Cl)cc2)c2cc(C(=O)NCC3CCCO3)sc21 (stereo not drawn) | inconclusive: 31.4% |
| O=C(c1cc(C2CC2)on1)N1CCN(c2ccccc2)CC1 | inconclusive: 31.8% |

Grouped by structure, the entries above containing two or more sulfur atoms.

| SMILES | inhibition |
| --- | --- |
| Cn1c(C(=O)N(Cc2ccccc2)Cc2cccs2)cc2sccc21 | inactive: -9.58% |
| COCCNC(=O)c1sc(=O)n(Cc2ccc(SC)cc2)c1C | inconclusive: 37.4% |

Further compounds

| SMILES | inhibition |
| --- | --- |
| CC(CC(=O)Nc1ncc([N+](=O)[O-])s1)c1ccccc1 (stereo not drawn) | inconclusive: 30.8% |
| COc1ccc(-n2nc3ccc(N)cc3n2)cc1Cl | inconclusive: 34.7% |
| Cn1nc(C(=O)Nc2sc3c(c2C#N)CCCC3)ccc1=O | inactive: 0.322% |
| COc1ccc(Br)c(Cn2c(C)c(C(=O)NCc3cccs3)sc2=O)c1 | inconclusive: 37.7% |
| FC(F)(F)c1cc(CCN2CCNC[C@H]2Cc2cccc3ccccc23)cc(C(F)(F)F)c1 | inactive: -8.27% |
| O=C(c1ccc(CS(=O)(=O)c2ccc(Br)cc2)o1)N1CCCCCC1 | inconclusive: 39.5% |
| COC(=O)c1ccsc1NC(=O)c1ccc(Cl)s1 | inconclusive: 41% |
| Cc1ccccc1OCC(=O)Nc1nnc(-c2ccncc2)s1 | inactive: -21.1% |
| O=C(Nc1cccc(C(F)(F)F)c1)Nc1ccc2nc([C@@H]3O[C@H](CO)[C@@H](O)[C@H](O)[C@H]3O)[nH]c2c1 | inconclusive: 43.3% |
| COc1cc(C(=O)OCC(C)=O)cc(NC(=O)c2ccco2)c1OC | active: 179% |
| COC(=O)[C@]1(CC(C)C)N[C@H](c2ccc(SC3CCCCC3)c(OC)c2)[C@@H]2C(=O)N(C)C(=O)[C@@H]21 | inconclusive: 36.8% |
| CC(C)(C)c1ccc(OCCCC(=O)NNC(=O)c2ccccc2O)cc1 | inactive: -5.04% |
| C=CCNCCOCCOc1ccc(C)cc1Br | inactive: -3.23% |
| COCc1cc(N2CCN(C(=O)OC(C)(C)C)C[C@@H]2C)ccc1N1CCN(Cc2ccccc2)[C@H](C)C1 | inactive: -8.69% |
| O=C(O)COc1ccc(/C=N/NC(=O)c2cn(-c3ccccc3)nc2-c2ccccc2)cc1 | inactive: -2.83% |
| CC(=O)Oc1ccc(Cn2c(C)c(C(=O)NCc3ccccc3C(F)(F)F)sc2=O)cc1 | inconclusive: 36.4% |
| O=c1c(C/C=C/c2ccccc2)c(O)ccn1CCc1c[nH]c2ccccc12 | inactive: -5.74% |
| CC(C)CCn1c(N2CCCC2)nc2c1c(=O)n(C)c(=O)n2C | inconclusive: 31.3% |
| COc1ccc(C(C)=O)cc1CN1C(=O)C(C)ON=C1c1ncccc1C (stereo not drawn) | inconclusive: 32.6% |
| CCOc1ccc(-n2c(SCC(=O)Nc3nccs3)nnc2-c2ccoc2C)cc1 | active: 179% |
| CCCCOCC1CN(CCCC)S(=O)(=O)c2c(Oc3ccc(C)cc3)cccc2O1 (stereo not drawn) | inactive: -9.48% |
| COc1ccc2nc3c(cc2c1)c(NC(=O)c1cccs1)nn3CC(C)C | active: 56% |
| CC1CCCCN1Cc1c(O)ccc2c(=O)c(-c3nc4ccccc4s3)coc12 (stereo not drawn) | active: 44.4% |
| CCOCCCNC(=S)NCCNc1nc2ccc(C)cc2cc1C#N | inconclusive: 33.9% |
| C/C(=N/NC(=O)c1ccncc1)c1cc2ccc(O)cc2oc1=O | inconclusive: 46.4% |

Shown tab-delimited: 3 of the compounds above.
SMILES	inhibition
COc1ccc(CN2C(=O)CSC2c2ccncc2)cc1 (stereo not drawn)	inconclusive: 41.1%
Cn1c(C(=O)N(Cc2ccccc2)Cc2cccs2)cc2sccc21	inactive: -9.58%
O=C(O)COc1ccc(/C=N/NC(=O)c2cn(-c3ccccc3)nc2-c2ccccc2)cc1	inactive: -2.83%

(cont.)

| SMILES | inhibition |
| --- | --- |
| COc1ccc(Br)cc1C1CC(=O)N2CN(C)CSC2=C1C#N (stereo not drawn) | inconclusive: 33% |
| O=[N+]([O-])c1ccc(-c2cn3nc(-c4ccccc4)c(-c4ccccc4)nc3n2)cc1 | inconclusive: 43.7% |
| Cc1c(/C=N/Nc2nc3ccccc3[nH]2)c2ccccc2n1C | inconclusive: 34.7% |
| COc1ccc(C(=O)CCC(=O)Nc2ccc(Cl)cc2)cc1 | inconclusive: 32.8% |
| Cc1cccnc1C1=NOC(Cc2ccccc2)C(=O)N1Cc1ccc(F)cc1 (stereo not drawn) | inconclusive: 40.8% |
| O=C1C2CCCCN2C(=O)N1CCN1CCN(c2cccc(Cl)c2)CC1 (stereo not drawn) | inconclusive: 37.3% |
| O=C(COc1cc2oc(=O)c3c(c2cc1Cl)CCC3)Nc1cccnc1 | inactive: -2.19% |
| COc1ccc(CNC(=O)c2sc(=O)n(Cc3ccc(C)cc3)c2C)cc1 | inconclusive: 33.9% |
| O=C(Nc1ccc2c(c1)OCCO2)C1CCCN(S(=O)(=O)c2cnc[nH]2)C1 (stereo not drawn) | inconclusive: 31.2% |
| CCOC(=O)C1=C(CS(=O)(=O)c2ccc(C)c(C)c2)NC(=O)NC1c1ccc(O)cc1 (stereo not drawn) | inconclusive: 30% |
| CC(=O)c1c(C)[nH]c(C(=O)COC(=O)c2cc(S(=O)(=O)N(C)c3ccccc3)ccc2Cl)c1C | inactive: -3.01% |
| CCOC(=O)c1cc2c(=O)n3ccccc3nc2n(CCCOC)c1=NC(=O)c1ccncc1 | active: 153% |
| COc1ccc(OC(=O)c2cccnc2)cc1 | inactive: -6.6% |
| CC(C)CC(CO)N1CCN(C(=O)c2cccc(C(F)(F)F)c2)CCC1=O (stereo not drawn) | inconclusive: 30.1% |
| CCOC(=O)c1c(C)n(C)c2ccc(OCC(O)CN3CCN(C)CC3)cc12 (stereo not drawn) | inconclusive: 31.4% |
| Cc1nc(-c2cccc(N)c2)cs1 | inconclusive: 49.4% |
| CC(C)CCn1c(CN2CC(C)OC(C)C2)nc2c1c(=O)n(C)c(=O)n2C (stereo not drawn) | active: 37.2% |
| CN1c2ccc(Cl)cc2C(=O)NC1C1CC=CCC1 (stereo not drawn) | active: 43.7% |
| COc1ccc(-c2c(-c3ccc(S(C)(=O)=O)cc3)sc3ccc(OC)cc23)cc1 | inconclusive: 33.3% |
| N/C(CSc1nc(-c2ccccc2)c(-c2ccccc2)o1)=N\O | inactive: -5.64% |
| CC(C)Cn1c(N)c(C(=O)CSc2ncnc3sc4c(c23)CCCC4)c(=O)n(C)c1=O | inconclusive: 30.6% |
| Cn1cc(S(=O)(=O)Cc2ccc(F)cc2)c2ccccc21 | inconclusive: 44.1% |
| O=C1c2ccccc2C(Nc2ccc(S(=O)(=O)N3CCOCC3)cc2)N1Cc1ccco1 (stereo not drawn) | inconclusive: 31.8% |
